The values below are quoted from earlier work in publication PMC8618442, “Solubility of Cinnarizine in (Transcutol + Water) Mixtures: Determination, Hansen Solubility Parameters, Correlation, and Thermodynamics” (Molecules, 2021).

The conditions of the series: cited from earlier work.

For the molecule `C(=C\c1ccccc1)/CN1CCN(C(c2ccccc2)c2ccccc2)CC1` [CNZ, 1-benzhydryl-4-[(E)-3-phenylprop-2-enyl]piperazine], the “partition coefficient (log P)” value was 5.8.
